Source: patent US8933103B2, “Pyridone derivatives” (Daiichi Sankyo Company, Limited, priority 2012, dated 2015)
pIC50: −log10 of the molar value.

Key:
[1] = biological target: T1, phosphorylated Axl (pAxl Y702) in NCI-H1299 cells (Homo sapiens, UniProt P30530); assay: Intracellular Axl Phosphorylation Inhibitory Activity (pAxl, NCI-H1299 cells); assay type: cell-based; settings: 1 h compound incubation, GAS6 stimulation 10 minutes, pAxl (Y702) level
T1 construct: endogenous in cells; host or cells: NCI-H1299
T1 sequence (P30530 26-894): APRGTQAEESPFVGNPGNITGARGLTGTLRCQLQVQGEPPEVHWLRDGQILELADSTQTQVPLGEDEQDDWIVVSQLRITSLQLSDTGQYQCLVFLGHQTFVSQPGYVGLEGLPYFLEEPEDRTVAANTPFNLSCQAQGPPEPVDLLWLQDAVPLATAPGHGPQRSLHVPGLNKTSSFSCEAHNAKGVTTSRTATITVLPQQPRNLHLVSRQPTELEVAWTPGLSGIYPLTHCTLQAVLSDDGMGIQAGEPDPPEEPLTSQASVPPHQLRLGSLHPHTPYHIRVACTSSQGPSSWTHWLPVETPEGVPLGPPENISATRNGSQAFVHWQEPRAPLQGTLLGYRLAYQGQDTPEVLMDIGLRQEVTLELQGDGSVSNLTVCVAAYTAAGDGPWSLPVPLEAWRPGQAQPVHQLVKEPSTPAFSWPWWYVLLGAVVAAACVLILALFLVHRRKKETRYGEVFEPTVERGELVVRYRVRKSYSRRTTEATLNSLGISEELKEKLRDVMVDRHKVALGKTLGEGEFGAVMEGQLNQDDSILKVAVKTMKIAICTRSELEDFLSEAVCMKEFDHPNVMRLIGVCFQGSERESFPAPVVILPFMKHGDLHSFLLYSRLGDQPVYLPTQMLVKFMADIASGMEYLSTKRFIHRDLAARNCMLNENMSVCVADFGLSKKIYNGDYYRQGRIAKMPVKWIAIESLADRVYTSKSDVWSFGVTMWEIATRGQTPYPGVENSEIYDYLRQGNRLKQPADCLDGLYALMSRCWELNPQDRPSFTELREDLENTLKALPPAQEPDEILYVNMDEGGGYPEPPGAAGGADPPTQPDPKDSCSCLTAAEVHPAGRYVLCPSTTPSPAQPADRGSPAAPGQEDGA
Experimental: A phosphorylated Axl (hereinafter pAxl) inhibitory test was performed using the human non-small-cell lung cancer-derived cell strain NCI-H1299.
On the following day, the medium was removed, 100 μl of fresh medium were added, and the cells were cultured at 37° C. in the presence of 5% CO2 for one day.
The test compound was dissolved in DMSO and diluted with medium to prepare a sample solution (DMSO concentration: 2%). Twenty-five microliters of medium or sample-added medium was added to each well (DMSO concentration: 0.4%), and the plate was incubated at 37° C. in the presence of 5% CO2 for one hour.
After stirring, the plate was incubated at 37° C. in the presence of 5% CO2 for 10 minutes.
The supernatant was discarded, and 0.1 ml of a 37% formalin solution diluted to 4% with phosphate buffer (PBS) (hereinafter “4% formalin solution”) was added to each well. The plate was allowed to stand at room temperature for 10 minutes.
Next, the 4% formalin solution was discarded, and 0.2 ml of a solution of Triton X-100 diluted to 0.1% with PBS (hereinafter “wash buffer”) was added. […]
After light stirring, the plate was incubated for 20 minutes. Luminescence was then measured by ARVO sx (PerkinElmer), and the pAxl (Y702) level was measured.
pAxl Inhibitory activity was determined by the following formula. […]
T: Luminescence value of the reaction solution with a compound not added

[2] = biological target: T2, AXL (fusion protein of amino acids 464-885 of the intracellular domain of human AXL with glutathione transferase) (Homo sapiens, UniProt P30530); assay: Cell-Free Axl Kinase Inhibitory Activity
T2 sequence (P30530 464-885 isoform P30530-2): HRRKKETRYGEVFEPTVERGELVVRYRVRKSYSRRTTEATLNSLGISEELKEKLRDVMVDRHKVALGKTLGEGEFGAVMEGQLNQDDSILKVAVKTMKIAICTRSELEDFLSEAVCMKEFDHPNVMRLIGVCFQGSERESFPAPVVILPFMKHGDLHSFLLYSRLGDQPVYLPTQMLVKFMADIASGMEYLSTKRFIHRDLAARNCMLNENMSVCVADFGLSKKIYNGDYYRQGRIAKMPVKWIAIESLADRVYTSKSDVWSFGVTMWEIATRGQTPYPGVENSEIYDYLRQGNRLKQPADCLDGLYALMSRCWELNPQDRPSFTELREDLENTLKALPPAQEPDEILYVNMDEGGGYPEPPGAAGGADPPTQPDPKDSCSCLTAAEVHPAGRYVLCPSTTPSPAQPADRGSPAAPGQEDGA

pIC50 [1]: 7.00 to 7.30
pIC50 [2]: 8.00 to 9.00
Structure (SMILES): COc1ccccc1-c1cnc(N)c(-c2ccc(NC(=O)c3cn(CC(F)(F)F)cc(-c4ccc(F)cc4)c3=O)cc2)c1 [Example 34, N-{4-[2-Amino-5-(2-methoxyphenyl)pyridin-3-yl]phenyl}-5-(4-fluorophenyl)-4-oxo-1-(2,2,2-trifluoroethyl)-1,4-dihydropyridine-3-carboxamide]
